Laboratory results: PubChem BioAssay AID1508597 (Cure First, 2020)

Test: 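Knock-downs altering ovarian cancer cell survival with or without PARP inhibitor rucaparib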 (primary screen)
System: human ovarian carcinoma lines grown from tumours: OCI-P5x (papillary serous) and OCI-C5x (clear cell)
Knock-down reagent: siRNA pool against human genes, 1.25 pmol siRNA per well
Time to read-out: 72 h or 96 h, depending on the cell culture
Conditions: rucaparib 20 µM (about IC30) or vehicle, present until read-out
Rucaparib or vehicle: Rucaparib
Cell line: OCI-P5x (serous)
Read-out: 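ATP luminescence measured at 72 or 96 h according to the culture, then normalised and expressed as percent viability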
Scale: viability, normalised: higher = more viable cells remaining
Rule for the call: 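Active when normalised viability falls below 80 percent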
Calls: active = viability under 80%; inactive = viability 80% or more
This is a random part of the about 2,100 reagents, under one of the conditions tested. 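Calls flag viability under 80% in either arm, not effects specific to rucaparib; the reference for percent is not stated.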 Entries without a mark were called inactive. A reagent listed more than once was tested more than once; the source does not tell the runs apart. Reagent sequences are not shown. Not given: the 100% reference.

With CCNK, technical replicate 1 the deposit lists viability, normalised (%) = 75.6 (active). CCNK, technical replicate 2 gave viability, normalised (%) = 59 (active). For CCNK, technical replicate 3 the deposit lists viability, normalised (%) = 58.2 (active). For DHX37, technical replicate 1, the values are viability, normalised (%) = 57.4 (active). DHX37, technical replicate 2 showed viability, normalised (%) = 50.1 (active). DHX37, technical replicate 3 scored viability, normalised (%) = 44.6 (active).

SETD3, technical replicate 1 scored viability, normalised (%) = 56.9 (active). SETD3, technical replicate 2 scored viability, normalised (%) = 53.6 (active). With SETD3, technical replicate 3, the entry reads viability, normalised (%) = 55 (active). With FANCC, technical replicate 1, the entry reads viability, normalised (%) = 77.1 (active). FANCC, technical replicate 2 scored viability, normalised (%) = 79.4 (active). FANCC, technical replicate 3 showed viability, normalised (%) = 63 (active).

For PDE10A, technical replicate 1, the values are viability, normalised (%) = 50.4 (active). With PDE10A, technical replicate 2, the values are viability, normalised (%) = 64.7 (active). PDE10A, technical replicate 3 showed viability, normalised (%) = 64.9 (active). For SH3KBP1, technical replicate 1 the deposit lists viability, normalised (%) = 58.6 (active). For SH3KBP1, technical replicate 2 the deposit lists viability, normalised (%) = 83.6. SH3KBP1, technical replicate 3 showed viability, normalised (%) = 83.7.

SIRT3, technical replicate 1 scored viability, normalised (%) = 33.4 (active). For SIRT3, technical replicate 2, the values are viability, normalised (%) = 37.2 (active). SIRT3, technical replicate 3 gave viability, normalised (%) = 39.1 (active). HCK, technical replicate 1 showed viability, normalised (%) = 51.1 (active). HCK, technical replicate 1 gave viability, normalised (%) = 103. HCK, technical replicate 2 showed viability, normalised (%) = 96.5.

HCK, technical replicate 2 gave viability, normalised (%) = 57.7 (active). HCK, technical replicate 3 gave viability, normalised (%) = 56.3 (active). With HCK, technical replicate 3, the entry reads viability, normalised (%) = 107. DPH5, technical replicate 1 showed viability, normalised (%) = 42.2 (active). For DPH5, technical replicate 2, the values are viability, normalised (%) = 39.9 (active). DPH5, technical replicate 3 showed viability, normalised (%) = 42 (active).

MAPK13, technical replicate 1 scored viability, normalised (%) = 96.2. With MAPK13, technical replicate 2 the deposit lists viability, normalised (%) = 43.8 (active). With MAPK13, technical replicate 3 the deposit lists viability, normalised (%) = 73.1 (active).
